Measured values: publication PMC12397353
These are yes or no findings as the source states them, for the method shown. In cells and extracts the contact can be indirect. Some binding calls cover weakened binding; strength is not graded here.

By UniProt entry, the sequences of proteins in these tests, tags left out. Residues count along the entry.
UniProt Q63604, residues 32-821: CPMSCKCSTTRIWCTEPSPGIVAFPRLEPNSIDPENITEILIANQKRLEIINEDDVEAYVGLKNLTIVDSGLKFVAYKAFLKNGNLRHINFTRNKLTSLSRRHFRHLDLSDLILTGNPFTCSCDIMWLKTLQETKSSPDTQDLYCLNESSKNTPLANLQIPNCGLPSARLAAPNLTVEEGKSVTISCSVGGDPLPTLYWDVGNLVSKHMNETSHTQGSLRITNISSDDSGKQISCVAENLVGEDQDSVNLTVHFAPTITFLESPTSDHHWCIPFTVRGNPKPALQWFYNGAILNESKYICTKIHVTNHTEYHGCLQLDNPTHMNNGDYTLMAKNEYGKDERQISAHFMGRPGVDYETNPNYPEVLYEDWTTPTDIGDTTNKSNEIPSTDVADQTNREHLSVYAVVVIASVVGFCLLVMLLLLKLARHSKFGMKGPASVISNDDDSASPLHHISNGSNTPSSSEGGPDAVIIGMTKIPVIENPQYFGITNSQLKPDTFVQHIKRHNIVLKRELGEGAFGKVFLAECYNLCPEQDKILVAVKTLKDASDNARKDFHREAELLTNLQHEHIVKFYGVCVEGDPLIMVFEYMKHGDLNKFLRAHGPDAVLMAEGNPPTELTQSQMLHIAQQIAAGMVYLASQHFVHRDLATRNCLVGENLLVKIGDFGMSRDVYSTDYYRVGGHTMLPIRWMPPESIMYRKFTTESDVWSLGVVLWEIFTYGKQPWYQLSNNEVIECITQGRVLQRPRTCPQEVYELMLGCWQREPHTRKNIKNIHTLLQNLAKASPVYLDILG
UniProt Q9JJ50: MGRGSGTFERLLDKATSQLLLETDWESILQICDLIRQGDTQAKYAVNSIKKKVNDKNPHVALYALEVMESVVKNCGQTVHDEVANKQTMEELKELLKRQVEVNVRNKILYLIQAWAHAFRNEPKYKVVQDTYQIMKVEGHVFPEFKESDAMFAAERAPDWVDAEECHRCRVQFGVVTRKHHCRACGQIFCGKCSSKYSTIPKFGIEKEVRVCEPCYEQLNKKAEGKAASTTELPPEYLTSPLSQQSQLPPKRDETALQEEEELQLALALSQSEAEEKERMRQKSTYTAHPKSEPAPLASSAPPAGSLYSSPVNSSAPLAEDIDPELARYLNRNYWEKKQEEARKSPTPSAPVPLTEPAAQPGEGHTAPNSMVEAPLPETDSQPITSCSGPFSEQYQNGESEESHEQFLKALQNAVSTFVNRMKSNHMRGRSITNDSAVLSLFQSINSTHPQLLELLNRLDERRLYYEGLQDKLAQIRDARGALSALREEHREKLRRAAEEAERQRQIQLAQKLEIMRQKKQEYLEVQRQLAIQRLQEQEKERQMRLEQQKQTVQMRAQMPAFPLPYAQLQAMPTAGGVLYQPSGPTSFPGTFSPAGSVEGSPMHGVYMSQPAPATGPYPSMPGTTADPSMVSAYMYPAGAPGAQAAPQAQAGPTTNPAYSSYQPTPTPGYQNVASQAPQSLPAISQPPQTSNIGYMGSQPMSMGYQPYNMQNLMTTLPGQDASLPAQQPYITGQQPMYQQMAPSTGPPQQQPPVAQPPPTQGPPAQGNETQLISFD

Biological target: full-length tropomyosin-related kinase B receptor (TrkB-FL) (rat (endogenous in primary cortical cultures)) (UniProt Q63604)
Assay: co-IP; immunoprecipitation with the generic TrkB antibody panTrkB from lysates of rat cortical cultures (1% NP-40, 80 mM NaCl, 20 mM EDTA, 20 mM Tris-HCl pH 8), Protein G agarose; blot for TrkB-FL Ct and Hrs; cultures treated with NMDA or BDNF

binding: binds
Substance: hepatocyte growth factor-regulated tyrosine kinase substrate (Hrs) (from UniProt Q9JJ50 1-776)
